Experiment: OD (image density) of dye ink in electrowetting test cell, spectroradiometer
Conditions: at maximum absorption wavelength, per 1 μm of oil layer

SMILES	OD (dye concentration 10% by mass)	OD (dye concentration 40% by mass)
CCCCC(CC)c1n[nH]c2c(/N=C3/C(C#N)=C(C(=O)OC4C(C(C)(C)C)CC(C)CC4C(C)(C)C)c4nc(C(C)(C)C)nn43)c(C(C)(C)C)nn12 (stereo not drawn) [Exemplary Compound 3]	0.8	2.8
CCCCC(CC)c1nnc2n1N=C(C(C)(C)C)/C2=N/c1c(C(C)(C)C)nn2c(C(CC)CCCC)n[nH]c12 (stereo not drawn) [Exemplary Compound 1]	0.7	
